Numbering of substitutions follows the chain as printed. Results are given in words; binding and its absence hold for the method and conditions named. In cells and extracts the contact can be indirect. Some results given as binding are weak or reduced against the parent protein; the word gives no strength. For part of these data: Sequences can lack the tags named with a protein.
Tests used:
D37R F-ARMC1 = molecular target: T1, D37R F-ARMC1 (UniProt Q9NVT9); experiment: co-IP; small-scale copurification: membranes of cells expressing F-ARMC1 variants solubilized in 1% digitonin in RNC buffer, M2 anti-Flag resin 1 hour at 4°C, washed in 0.1% digitonin, eluted with sample buffer, immunoblotting; cells without or with siRNA knock-down of MIRO1 and MIRO2, the three MTFRs, TMEM11, DNAJC11 or MTCH2
T1 sequence: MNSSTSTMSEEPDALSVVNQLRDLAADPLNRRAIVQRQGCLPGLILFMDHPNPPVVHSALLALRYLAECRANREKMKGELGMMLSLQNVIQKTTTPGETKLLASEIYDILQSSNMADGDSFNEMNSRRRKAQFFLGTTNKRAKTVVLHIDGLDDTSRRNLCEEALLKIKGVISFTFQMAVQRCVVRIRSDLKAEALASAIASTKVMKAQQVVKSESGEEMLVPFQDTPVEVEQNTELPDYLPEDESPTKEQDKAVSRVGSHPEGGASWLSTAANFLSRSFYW

[1] = molecular target: T2, Flag-tagged ARMC1 (F-ARMC1), wild type (UniProt Q9NVT9); experiment: as above
T2 sequence: T1 sequence with R37D

[2] = molecular target: T2, Flag-tagged ARMC1 (F-ARMC1), wild type; experiment: co-sedimentation; F-ARMC1 affinity purification size fractionated over a 10 to 30% sucrose gradient in PSB with 0.25% digitonin, 55,000 rpm, 1 hour, 4°C; 11 fractions, immunoblotting and Coomassie staining

Measured: binding

B1: metaxin 1 (MTX1) (protein, UniProt Q13505 1-466)
chain: MLLGGPPRSPRSGTSPKGPWSSTGHVQFGKSPQTWPRRTRPRSPEPAAPSGVRGSTWTRRRDSPRRAGPTALSRYVGHLWMGRRPPSPEARGPVPRSSAASRARRSLASPGISPGPLTATIGGAVAGGGPRQGRAEAHKEVFPGQRVGKMAAPMELFCWSGGWGLPSVDLDSLAVLTYARFTGAPLKVHKISNPWQSPSGTLPALRTSHGEVISVPHKIITHLRKEKYNADYDLSARQGADTLAFMSLLEEKLLPVLVHTFWIDTKNYVEVTRKWYAEAMPFPLNFFLPGRMQRQYMERLQLLTGEHRPEDEEELEKELYREARECLTLLSQRLGSQKFFFGDAPASLDAFVFSYLALLLQAKLPSGKLQVHLRGLHNLCAYCTHILSLYFPWDGAEVPPQRQTPAGPETEEEPYRRRNQILSVLAGLAAMVGYALLSGIVSIQRATPARAPGTRTLGMAEEDEEE
binds: D37R F-ARMC1 | [1] | [2]

From article PMC11980836
